Among the data in paper PMC11949052 are binding values, retold here.

Chains of the proteins cited; added tags and fusions are not shown. Lines headed by an entry give the natural chain unless they say otherwise; changes in a name come on top.
UniProt P03952: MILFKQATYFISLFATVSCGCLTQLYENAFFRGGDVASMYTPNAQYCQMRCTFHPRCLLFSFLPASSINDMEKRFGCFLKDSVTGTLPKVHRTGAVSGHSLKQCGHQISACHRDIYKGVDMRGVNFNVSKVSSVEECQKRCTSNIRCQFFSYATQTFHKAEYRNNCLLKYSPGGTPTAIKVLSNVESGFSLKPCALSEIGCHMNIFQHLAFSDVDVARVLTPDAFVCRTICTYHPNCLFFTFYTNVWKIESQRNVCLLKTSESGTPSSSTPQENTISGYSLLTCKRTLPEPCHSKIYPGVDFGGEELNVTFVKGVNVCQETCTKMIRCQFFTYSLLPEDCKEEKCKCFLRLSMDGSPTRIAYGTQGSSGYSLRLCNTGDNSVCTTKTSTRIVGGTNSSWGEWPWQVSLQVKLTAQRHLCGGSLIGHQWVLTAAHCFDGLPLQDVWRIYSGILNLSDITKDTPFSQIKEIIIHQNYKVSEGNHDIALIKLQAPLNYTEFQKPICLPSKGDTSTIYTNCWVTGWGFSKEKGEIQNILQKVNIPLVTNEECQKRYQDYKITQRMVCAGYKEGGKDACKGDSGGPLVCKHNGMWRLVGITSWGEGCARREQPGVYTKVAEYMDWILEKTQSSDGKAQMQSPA

One test deals with kallikrein (PKa) (human) (UniProt P03952). Briefly: ELISA; biotinylated FXIIa or PKa (25 μL of 2 μg/mL) with an equivalent molar amount of C1-INH (transfectant supernatant) in 2% BSA in PBS-T on a streptavidin-coated plate, 1 hour at 37°C; bound complex detected with anti-C1-INH mAb; serially diluted samples; relative absorbance against WT; only the target purified.
The target of another test is T1, activated C1s (C1s̄) (UniProt P09871).
T1 sequence (chain, biotinylated | biotinylated) 1: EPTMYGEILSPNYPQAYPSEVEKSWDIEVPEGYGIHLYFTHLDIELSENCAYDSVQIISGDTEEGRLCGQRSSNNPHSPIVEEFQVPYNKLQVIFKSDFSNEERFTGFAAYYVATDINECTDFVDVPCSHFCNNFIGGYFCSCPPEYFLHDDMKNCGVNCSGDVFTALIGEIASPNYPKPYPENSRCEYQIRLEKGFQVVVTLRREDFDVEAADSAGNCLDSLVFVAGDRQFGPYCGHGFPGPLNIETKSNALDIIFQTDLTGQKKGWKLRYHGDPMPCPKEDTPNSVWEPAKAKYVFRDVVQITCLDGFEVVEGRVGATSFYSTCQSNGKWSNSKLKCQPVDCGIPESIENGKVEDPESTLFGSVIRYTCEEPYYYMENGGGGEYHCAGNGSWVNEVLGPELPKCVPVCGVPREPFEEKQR
T1 sequence (chain, biotinylated | biotinylated) 2: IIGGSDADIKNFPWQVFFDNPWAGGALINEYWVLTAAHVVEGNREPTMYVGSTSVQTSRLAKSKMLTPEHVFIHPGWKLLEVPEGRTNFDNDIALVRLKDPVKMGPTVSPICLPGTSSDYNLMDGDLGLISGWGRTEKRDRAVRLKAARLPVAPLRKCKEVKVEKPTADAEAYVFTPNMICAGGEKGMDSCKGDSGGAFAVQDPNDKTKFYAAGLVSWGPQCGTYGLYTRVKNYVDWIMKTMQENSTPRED
Kind of test: ELISA; Quidel kit: C1-INH (transfectant supernatant) incubated with biotinylated C1s̄, the complex captured on streptavidin-coated wells, detected with goat anti-human C1-INH Ab; C1-INH at 125 ng/mL, 250 ng/mL, 500 ng/mL and 1 μg/mL; relative absorbance (450 nm) against WT; only the target purified. A general note: In an ELISA, binding on a coated surface is turned into a signal by an enzyme label.

Positions count from the first letter of the chain named. In names and notes the source's numbering stands. These are yes or no findings as the source states them, for the method shown. Some results given as binding are weak or reduced against the parent protein; the word gives no strength.

B1: C1-INH N253del (protein, UniProt P05155 23-500)
chain: NPNATSSSSQDPESLQDRGEGKVATTVISKMLFVEPILEVSSLPTTNSTTNSATKITANTTDEPTTQPTTEPTTQPTIQPTQPTTQLPTDSPTQPTTGSFCPGPVTLCSDLESHSTEAVLGDALVDFSLKLYHAFSAMKKVETNMAFSPFSIASLLTQVLLGAGENTKTNLESILSYPKDFTCVHQALKGFTTKGVTSVSQIFHSPDLAIRDTFVNASRTLYSSSPRVLSNSDANLELINTWVAKNTNNKISRLLDSLPSDTRLVLLNAIYLSAKWKTTFDPKKTRMEPFHFKNSVIKVPMMNSKKYPVAHFIDQTLKAKVGQLQLSHNLSLVILVPQNLKHRLEDMEQALSPSVFKAIMEKLEMSKFQPTLLTLPRIKVTTSQDMLSIMEKLEFFDFSYDLNLCGLTEDPDLQVSAMQHQTVLELTETGVEAAAASAISVARTLLVFEVQQPFLFVLWDQQHKFPVFMGRVYDPRA
With B1, the binding entry with kallikrein (PKa) (human) and with activated C1s (C1s̄) was “binds” throughout.

B2: C1-INH N254del (protein, UniProt P05155 23-500)
chain: B1 chain
Regarding B2, the binding entry with kallikrein (PKa) (human) and in the test with activated C1s (C1s̄) was “binds” throughout.

B3: C1-INH S255del (protein, UniProt P05155 23-500)
chain: B1 chain with S232N
For the molecule B3, the binding result in the test with kallikrein (PKa) (human) and with activated C1s (C1s̄) was “binds” throughout.

B4: C1-INH S275del (protein, UniProt P05155 23-500)
chain: NPNATSSSSQDPESLQDRGEGKVATTVISKMLFVEPILEVSSLPTTNSTTNSATKITANTTDEPTTQPTTEPTTQPTIQPTQPTTQLPTDSPTQPTTGSFCPGPVTLCSDLESHSTEAVLGDALVDFSLKLYHAFSAMKKVETNMAFSPFSIASLLTQVLLGAGENTKTNLESILSYPKDFTCVHQALKGFTTKGVTSVSQIFHSPDLAIRDTFVNASRTLYSSSPRVLSNNSDANLELINTWVAKNTNNKIRLLDSLPSDTRLVLLNAIYLSAKWKTTFDPKKTRMEPFHFKNSVIKVPMMNSKKYPVAHFIDQTLKAKVGQLQLSHNLSLVILVPQNLKHRLEDMEQALSPSVFKAIMEKLEMSKFQPTLLTLPRIKVTTSQDMLSIMEKLEFFDFSYDLNLCGLTEDPDLQVSAMQHQTVLELTETGVEAAAASAISVARTLLVFEVQQPFLFVLWDQQHKFPVFMGRVYDPRA
In the case of B4, the binding entry with activated C1s (C1s̄) is “binds”.

B5: C1-INH N352A (protein, UniProt P05155 23-500)
chain: NPNATSSSSQDPESLQDRGEGKVATTVISKMLFVEPILEVSSLPTTNSTTNSATKITANTTDEPTTQPTTEPTTQPTIQPTQPTTQLPTDSPTQPTTGSFCPGPVTLCSDLESHSTEAVLGDALVDFSLKLYHAFSAMKKVETNMAFSPFSIASLLTQVLLGAGENTKTNLESILSYPKDFTCVHQALKGFTTKGVTSVSQIFHSPDLAIRDTFVNASRTLYSSSPRVLSNNSDANLELINTWVAKNTNNKISRLLDSLPSDTRLVLLNAIYLSAKWKTTFDPKKTRMEPFHFKNSVIKVPMMNSKKYPVAHFIDQTLKAKVGQLQLSHALSLVILVPQNLKHRLEDMEQALSPSVFKAIMEKLEMSKFQPTLLTLPRIKVTTSQDMLSIMEKLEFFDFSYDLNLCGLTEDPDLQVSAMQHQTVLELTETGVEAAAASAISVARTLLVFEVQQPFLFVLWDQQHKFPVFMGRVYDPRA
Consider B5, for which the binding result with kallikrein (PKa) (human) and with activated C1s (C1s̄) was “binds” in each case.

B6: C1-INH N352S (protein, UniProt P05155 23-500)
chain: B5 chain with A330S
As to B6, the binding result with kallikrein (PKa) (human) and with activated C1s (C1s̄) was “binds” throughout.

B7: C1-INH S354G (protein, UniProt P05155 23-500)
chain: B5 chain with A330N, S332G
For B7, the binding entry with kallikrein (PKa) (human) and with activated C1s (C1s̄) was “binds” each time.

B8: C1-INH N254A (protein, UniProt P05155 23-500)
chain: B5 chain with N232A, A330N
B8: the binding result in the test with kallikrein (PKa) (human) and with activated C1s (C1s̄) was “binds” throughout.

B9: C1-INH S255G (protein, UniProt P05155 23-500)
chain: B5 chain with S233G, A330N
Take B9: the binding entry with kallikrein (PKa) (human) and in the test with activated C1s (C1s̄) was “binds” each time.

B10: C1-INH N238A (protein, UniProt P05155 23-500)
chain: B5 chain with N216A, A330N
With B10, the binding entry with kallikrein (PKa) (human) and with activated C1s (C1s̄) was “binds” throughout.

B11: C1-INH N253A (protein, UniProt P05155 23-500)
chain: B5 chain with N231A, A330N
In the case of B11, the binding entry with kallikrein (PKa) (human) and with activated C1s (C1s̄) was “binds” in each case.

B12: C1-INH N271A (protein, UniProt P05155 23-500)
chain: B5 chain with N249A, A330N
Consider B12, for which the binding result with kallikrein (PKa) (human) and in the test with activated C1s (C1s̄) was “binds” throughout.

B13: C1-INH N352I (protein, UniProt P05155 23-500)
chain: B5 chain with A330I
With B13, the binding result with kallikrein (PKa) (human) and in the test with activated C1s (C1s̄) was “binds” throughout.

B14: C1-INH S255T (protein, UniProt P05155 23-500)
chain: B5 chain with S233T, A330N
B14: the binding result with kallikrein (PKa) (human) and with activated C1s (C1s̄) was “binds” each time.
